Consider one molecule from patent US20120295935A1, “MIXED AMINAL PHARMACEUTICAL COMPOSITIONS AND USES THEREOF” (priority 2010, published 2012).

This series has as its system MC3T3 cells. The series can be described thus: Microarray analysis (GSEA, IPA) of thapsigargin-induced mild ER stress. The note with it: 10 nM; score of 3 or above statistically significant. The format is cell-based, mouse.

The structures appear in SMILES notation.

Turning to `C/C=C(/C)C(=O)O[C@H]1C(C)=C2[C@H]([C@@H]1OC(=O)CCCCCCC)[C@@](C)(OC(C)=O)C[C@H](OC(=O)CCC)[C@@]1(O)[C@H]2OC(=O)[C@@]1(C)O` [thapsigargin], the “IPA pathway score (Pathway 1 and Pathway 2)” value was found to be 55.
